From patent US20140371152A1
These are yes or no findings as the source states them, for the method shown. Some results given as binding are weak or reduced against the parent protein; the word gives no strength.

Target: Amyloid β 1-9 polypeptide corresponding to the N-terminal region of βCTF
Assay: polypeptide screening against Amyloid β 1-9

binding | Binder
binds | MPLSICDCYCISTICYCYFCVHR (amino terminal acetylated, carboxy terminal amidated) [#9 polypeptide]
binds | MGRVNCDCYCIGHYCYCYYCHNI (amino terminal acetylated, carboxy terminal amidated) [#8 polypeptide]
binds | MPTVYCDCYCAYNACYCYYCRSD (amino terminal acetylated, carboxy terminal amidated) [#10 polypeptide]
binds | MHHVYCDCYCFGPVCYCHSCT (amino terminal acetylated, carboxy terminal amidated) [6-5 polypeptide]
binds | MNTLICDCYCSLTRCFCYSCVDS (amino terminal acetylated, carboxy terminal amidated) [9-7 polypeptide]
binds | MVPVVCDCYCFLSVCFCYSCYIT (amino terminal acetylated, carboxy terminal amidated) [#5 polypeptide]
binds | MLYTSCDCYCDAFSCFCYSCGPY (amino terminal acetylated, carboxy terminal amidated) [#6 polypeptide]
binds | MRIFDCDCYCYRDICYCYFCTRH (amino terminal acetylated, carboxy terminal amidated) [#7 polypeptide]
binds | MDTVICDCYCDNYVCFCYSCSHV (amino terminal acetylated, carboxy terminal amidated) [#2 polypeptide]
binds | MSIRVCDCYCHGDLCFCYSCINS (amino terminal acetylated, carboxy terminal amidated) [#1 polypeptide]
binds | MHLVICDCYCTTDICYCYSCTPN (amino terminal acetylated, carboxy terminal amidated) [#4 polypeptide]
binds | MGLISCDCYCDSTACFCYSCTDF (amino terminal acetylated, carboxy terminal amidated) [#3 polypeptide]
